Results are given in words; binding and its absence hold for the method and conditions named. Binding seen in cells or lysates may run through a third protein. These calls come from enrichment with a bait or labelling near it, and not all partners need be listed. For some assays here: Where a sequence is shown, tags or fusion partners need not be part of it.

The chains behind the UniProt entries cited, without tags or fusion partners. Residues count along the entry.
UniProt P27824, residues 21-592: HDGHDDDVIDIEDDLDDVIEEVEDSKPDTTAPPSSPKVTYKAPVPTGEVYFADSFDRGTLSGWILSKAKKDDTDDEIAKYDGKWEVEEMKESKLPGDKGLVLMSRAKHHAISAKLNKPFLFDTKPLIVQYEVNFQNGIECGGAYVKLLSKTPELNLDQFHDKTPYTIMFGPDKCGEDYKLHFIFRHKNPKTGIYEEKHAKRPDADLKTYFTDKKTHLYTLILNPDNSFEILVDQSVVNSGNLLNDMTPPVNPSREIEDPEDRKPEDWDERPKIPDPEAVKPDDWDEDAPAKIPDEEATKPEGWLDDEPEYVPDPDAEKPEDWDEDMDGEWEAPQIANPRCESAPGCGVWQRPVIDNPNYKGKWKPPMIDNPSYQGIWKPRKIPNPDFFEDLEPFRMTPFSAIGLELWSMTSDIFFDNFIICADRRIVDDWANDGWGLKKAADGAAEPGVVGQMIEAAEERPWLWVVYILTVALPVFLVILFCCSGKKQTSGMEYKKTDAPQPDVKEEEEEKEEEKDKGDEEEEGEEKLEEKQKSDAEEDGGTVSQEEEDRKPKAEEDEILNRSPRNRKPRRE
UniProt P14625, residues 22-803: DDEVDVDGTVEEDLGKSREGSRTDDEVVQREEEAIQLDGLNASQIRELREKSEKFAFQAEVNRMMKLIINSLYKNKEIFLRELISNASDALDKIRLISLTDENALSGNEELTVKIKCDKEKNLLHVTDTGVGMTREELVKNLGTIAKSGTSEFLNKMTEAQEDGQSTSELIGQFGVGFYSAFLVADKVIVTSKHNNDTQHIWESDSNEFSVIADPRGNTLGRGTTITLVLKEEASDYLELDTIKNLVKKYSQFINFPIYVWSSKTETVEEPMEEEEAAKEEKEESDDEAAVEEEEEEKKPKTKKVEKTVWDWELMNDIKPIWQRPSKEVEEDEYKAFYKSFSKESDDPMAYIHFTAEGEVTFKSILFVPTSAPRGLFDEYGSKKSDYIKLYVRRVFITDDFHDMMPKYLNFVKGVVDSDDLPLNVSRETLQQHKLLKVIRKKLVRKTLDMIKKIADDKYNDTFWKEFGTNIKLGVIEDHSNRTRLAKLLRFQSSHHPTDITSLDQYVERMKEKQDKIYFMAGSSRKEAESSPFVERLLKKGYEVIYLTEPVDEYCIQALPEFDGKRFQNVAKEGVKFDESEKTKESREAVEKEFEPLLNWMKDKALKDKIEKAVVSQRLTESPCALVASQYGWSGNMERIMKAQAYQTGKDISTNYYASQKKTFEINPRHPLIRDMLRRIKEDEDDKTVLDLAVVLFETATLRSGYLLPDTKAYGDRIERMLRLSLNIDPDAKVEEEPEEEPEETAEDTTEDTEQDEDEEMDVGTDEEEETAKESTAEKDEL
UniProt P62333: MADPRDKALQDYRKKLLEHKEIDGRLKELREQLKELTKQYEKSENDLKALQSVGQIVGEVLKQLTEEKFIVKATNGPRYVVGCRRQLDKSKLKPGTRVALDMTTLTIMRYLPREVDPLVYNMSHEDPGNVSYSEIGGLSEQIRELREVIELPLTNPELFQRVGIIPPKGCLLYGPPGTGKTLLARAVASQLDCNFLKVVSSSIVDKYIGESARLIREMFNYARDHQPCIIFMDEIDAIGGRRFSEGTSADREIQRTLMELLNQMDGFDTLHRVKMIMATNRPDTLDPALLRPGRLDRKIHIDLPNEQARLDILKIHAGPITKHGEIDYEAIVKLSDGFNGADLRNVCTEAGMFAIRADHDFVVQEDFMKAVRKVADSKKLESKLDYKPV
UniProt Q9UBS4, residues 23-358: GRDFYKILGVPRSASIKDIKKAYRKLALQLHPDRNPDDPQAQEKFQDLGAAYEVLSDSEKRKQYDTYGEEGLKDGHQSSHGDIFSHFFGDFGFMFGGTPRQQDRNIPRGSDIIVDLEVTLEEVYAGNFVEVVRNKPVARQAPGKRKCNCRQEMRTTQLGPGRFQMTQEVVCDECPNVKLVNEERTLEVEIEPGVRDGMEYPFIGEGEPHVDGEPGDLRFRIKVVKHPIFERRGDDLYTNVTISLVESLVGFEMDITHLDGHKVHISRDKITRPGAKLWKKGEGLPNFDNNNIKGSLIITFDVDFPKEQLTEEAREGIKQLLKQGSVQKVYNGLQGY
UniProt Q9NYU2, residues 43-1555: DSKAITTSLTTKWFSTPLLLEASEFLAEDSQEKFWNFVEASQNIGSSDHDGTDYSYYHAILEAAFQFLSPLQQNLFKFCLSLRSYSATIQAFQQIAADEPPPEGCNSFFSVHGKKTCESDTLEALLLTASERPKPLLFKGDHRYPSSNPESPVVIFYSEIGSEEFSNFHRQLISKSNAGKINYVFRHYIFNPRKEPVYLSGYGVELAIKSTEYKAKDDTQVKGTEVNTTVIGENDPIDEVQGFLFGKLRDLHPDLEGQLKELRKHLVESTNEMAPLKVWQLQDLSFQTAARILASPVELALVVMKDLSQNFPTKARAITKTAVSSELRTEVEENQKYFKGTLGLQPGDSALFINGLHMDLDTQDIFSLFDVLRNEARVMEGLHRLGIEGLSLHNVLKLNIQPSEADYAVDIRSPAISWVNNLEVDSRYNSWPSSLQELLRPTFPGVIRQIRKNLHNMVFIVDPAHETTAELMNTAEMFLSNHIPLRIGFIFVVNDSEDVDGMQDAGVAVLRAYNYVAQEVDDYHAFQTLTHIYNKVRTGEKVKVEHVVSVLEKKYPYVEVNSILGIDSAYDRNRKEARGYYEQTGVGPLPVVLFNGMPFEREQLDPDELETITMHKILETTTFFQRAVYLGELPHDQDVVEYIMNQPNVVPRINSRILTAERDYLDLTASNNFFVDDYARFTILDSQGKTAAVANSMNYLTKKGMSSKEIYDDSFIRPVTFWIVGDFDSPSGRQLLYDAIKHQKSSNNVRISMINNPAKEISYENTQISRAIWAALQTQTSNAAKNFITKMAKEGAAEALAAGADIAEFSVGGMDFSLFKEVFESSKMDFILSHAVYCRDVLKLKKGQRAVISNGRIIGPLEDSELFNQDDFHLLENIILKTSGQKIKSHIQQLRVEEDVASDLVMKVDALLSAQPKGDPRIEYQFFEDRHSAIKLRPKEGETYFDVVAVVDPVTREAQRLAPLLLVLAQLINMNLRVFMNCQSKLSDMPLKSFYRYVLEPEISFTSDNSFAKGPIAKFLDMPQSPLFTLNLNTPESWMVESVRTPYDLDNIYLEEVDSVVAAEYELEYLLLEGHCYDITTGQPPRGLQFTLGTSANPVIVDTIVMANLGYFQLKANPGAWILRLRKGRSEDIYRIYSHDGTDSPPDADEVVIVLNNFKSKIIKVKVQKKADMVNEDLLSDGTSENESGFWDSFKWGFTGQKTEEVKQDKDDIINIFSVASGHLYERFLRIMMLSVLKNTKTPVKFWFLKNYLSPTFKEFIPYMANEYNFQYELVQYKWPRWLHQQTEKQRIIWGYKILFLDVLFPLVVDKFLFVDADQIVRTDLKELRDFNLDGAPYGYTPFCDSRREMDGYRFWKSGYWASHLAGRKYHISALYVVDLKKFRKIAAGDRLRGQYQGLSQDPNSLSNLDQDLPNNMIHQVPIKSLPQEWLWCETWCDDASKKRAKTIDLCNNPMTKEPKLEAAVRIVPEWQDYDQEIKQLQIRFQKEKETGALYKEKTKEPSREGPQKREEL

The target in assay [1] is T1, ER-degradation enhancing α-mannosidase-like (EDEM1) (UniProt Q92611).
T1 sequence: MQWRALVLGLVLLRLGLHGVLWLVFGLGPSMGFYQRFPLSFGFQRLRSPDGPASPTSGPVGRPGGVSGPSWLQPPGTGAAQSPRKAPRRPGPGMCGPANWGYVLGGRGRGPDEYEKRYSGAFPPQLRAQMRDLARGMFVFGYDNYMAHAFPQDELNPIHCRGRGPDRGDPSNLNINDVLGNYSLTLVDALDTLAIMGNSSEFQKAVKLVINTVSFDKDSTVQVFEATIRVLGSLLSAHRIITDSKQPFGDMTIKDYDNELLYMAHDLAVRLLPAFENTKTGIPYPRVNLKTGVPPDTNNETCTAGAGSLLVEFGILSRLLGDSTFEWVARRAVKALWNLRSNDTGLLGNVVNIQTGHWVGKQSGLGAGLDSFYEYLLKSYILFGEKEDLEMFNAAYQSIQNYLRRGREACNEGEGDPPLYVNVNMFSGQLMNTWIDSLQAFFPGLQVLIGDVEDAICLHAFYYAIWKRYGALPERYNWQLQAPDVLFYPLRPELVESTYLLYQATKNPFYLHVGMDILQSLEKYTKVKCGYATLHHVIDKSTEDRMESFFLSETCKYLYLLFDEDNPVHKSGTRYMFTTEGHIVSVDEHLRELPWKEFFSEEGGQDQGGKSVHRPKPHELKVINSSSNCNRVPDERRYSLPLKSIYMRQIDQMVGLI
Kind of assay: affinity purification with mass spectrometry; HEK293T overexpressing EDEM1 or an empty vector, lysed in 1% Triton X-100 buffer; immunoprecipitation with anti-EDEM1 antibodies, SDS-PAGE, in-gel digestion, LC-MS/MS; LFQ values of three biological replicates, t-test with permutation-based FDR, hierarchical clustering of GO-selected proteins (Figure 1A,B).

Assay [2] addresses T1, ER-degradation enhancing α-mannosidase-like (EDEM1). Kind of assay: affinity purification with mass spectrometry; HEK293T overexpressing EDEM1 or ∆-EDEM1, lysed in Triton X-100 or Digitonin buffer; immunoprecipitation with rabbit anti-EDEM1 antibodies, LC-MS/MS; spectral counts after subtraction of the empty-vector control (Figure 3A).
The target of assay [3] is EDEM1 mutant lacking the IDR (∆-EDEM1). Described as above.

With calnexin (from UniProt P27824 21-592), the binding entry in assay [1] was “binds”. Take “GRP94/HSP90B1 (from UniProt P14625 22-803)”: the binding result in assay [2] is reported as “binds”.

As to PSMC6 (from UniProt P62333 1-389), the binding entry in assay [1] is listed as “binds”. In the case of “calreticulin (from UniProt P27797 18-417)”, the binding entry in assay [1] is recorded as “binds”. For the molecule DNAJB11 (from UniProt Q9UBS4 23-358), the binding entry in assay [1] is reported as “binds”. Turning to “UDP-Glucose, glycoprotein glucosyltransferase UGGT1 (from UniProt Q9NYU2 43-1555)”, the binding entry in assay [1] is listed as “binds”.

B1: ERLIN1 (protein, UniProt O75477 1-348)
chain: MNMTQARVLVAAVVGLVAVLLYASIHKIEEGHLAVYYRGGALLTSPSGPGYHIMLPFITTFRSVQTTLQTDEVKNVPCGTSGGVMIYIDRIEVVNMLAPYAVFDIVRNYTADYDKTLIFNKIHHELNQFCSAHTLQEVYIELFDQIDENLKQALQKDLNLMAPGLTIQAVRVTKPKIPEAIRRNFELMEAEKTKLLIAAQKQKVVEKEAETERKKAVIEAEKIAQVAKIRFQQKVMEKETEKRISEIEDAAFLAREKAKADAEYYAAHKYATSNKHKLTPEYLELKKYQAIASNSKIYFGSNIPNMFVDSSCALKYSDIRTGRESSLPSKEALEPSGENVIQNKESTG
Regarding B1, the binding result in assay [3] and in assay [2] was “binds” throughout.

B2: ERp44 (protein, UniProt Q9BS26 30-406)
chain: EITSLDTENIDEILNNADVALVNFYADWCRFSQMLHPIFEEASDVIKEEFPNENQVVFARVDCDQHSDIAQRYRISKYPTLKLFRNGMMMKREYRGQRSVKALADYIRQQKSDPIQEIRDLAEITTLDRSKRNIIGYFEQKDSDNYRVFERVANILHDDCAFLSAFGDVSKPERYSGDNIIYKPPGHSAPDMVYLGAMTNFDVTYNWIQDKCVPLVREITFENGEELTEEGLPFLILFHMKEDTESLEIFQNEVARQLISEKGTINFLHADCDKFRHPLLHIQKTPADCPVIAIDSFRHMYVFGDFKDVLIPGKLKQFVFDLHSGKLHREFHHGPDPTDTAPGEQAQDVASSPPESSFQKLAPSEYRYTLLRDRDEL
With B2, in assay [1], the binding entry is “binds”.

B3: ANKZF1 (protein, UniProt Q9H8Y5 1-726)
chain: MSPAPDAAPAPASISLFDLSADAPVFQGLSLVSHAPGEALARAPRTSCSGSGERESPERKLLQGPMDISEKLFCSTCDQTFQNHQEQREHYKLDWHRFNLKQRLKDKPLLSALDFEKQSSTGDLSSISGSEDSDSASEEDLQTLDRERATFEKLSRPPGFYPHRVLFQNAQGQFLYAYRCVLGPHQDPPEEAELLLQNLQSRGPRDCVVLMAAAGHFAGAIFQGREVVTHKTFHRYTVRAKRGTAQGLRDARGGPSHSAGANLRRYNEATLYKDVRDLLAGPSWAKALEEAGTILLRAPRSGRSLFFGGKGAPLQRGDPRLWDIPLATRRPTFQELQRVLHKLTTLHVYEEDPREAVRLHSPQTHWKTVREERKKPTEEEIRKICRDEKEALGQNEESPKQGSGSEGEDGFQVELELVELTVGTLDLCESEVLPKRRRRKRNKKEKSRDQEAGAHRTLLQQTQEEEPSTQSSQAVAAPLGPLLDEAKAPGQPELWNALLAACRAGDVGVLKLQLAPSPADPRVLSLLSAPLGSGGFTLLHAAAAAGRGSVVRLLLEAGADPTVQDSRARPPYTVAADKSTRNEFRRFMEKNPDAYDYNKAQVPGPLTPEMEARQATRKREQKAARRQREEQQQRQQEQEEREREEQRRFAALSDREKRALAAERRLAAQLGAPTSPIPDSAIVNTRRCWSCGASLQGLTPFHYLDFSFCSTRCLQDHRRQAGRPSS
Regarding B3, the binding result in assay [3] and in assay [2] was “binds” each time.

B4: XTP3-B (ERLEC1) (protein, UniProt Q96DZ1 34-483)
chain: LPQLSDDIPFRVNWPGTEFSLPTTGVLYKEDNYVIMTTAHKEKYKCILPLVTSGDEEEEKDYKGPNPRELLEPLFKQSSCSYRIESYWTYEVCHGKHIRQYHEEKETGQKINIHEYYLGNMLAKNLLFEKEREAEEKEKSNEIPTKNIEGQMTPYYPVGMGNGTPCSLKQNRPRSSTVMYICHPESKHEILSVAEVTTCEYEVVILTPLLCSHPKYRFRASPVNDIFCQSLPGSPFKPLTLRQLEQQEEILRVPFRRNKEEDLQSTKEERFPAIHKSIAIGSQPVLTVGTTHISKLTDDQLIKEFLSGSYCFRGGVGWWKYEFCYGKHVHQYHEDKDSGKTSVVVGTWNQEEHIEWAKKNTARAYHLQDDGTQTVRMVSHFYGNGDICDITDKPRQVTVKLKCKESDSPHAVTVYMLEPHSCQYILGVESPVICKILDTADENGLLSLPN
In the case of B4, the binding entry in assay [3] and in assay [2] was “binds” in each case.

B5: ERLIN2 (protein, UniProt O94905 1-339)
chain: MAQLGAVVAVASSFFCASLFSAVHKIEEGHIGVYYRGGALLTSTSGPGFHLMLPFITSYKSVQTTLQTDEVKNVPCGTSGGVMIYFDRIEVVNFLVPNAVYDIVKNYTADYDKALIFNKIHHELNQFCSVHTLQEVYIELFDQIDENLKLALQQDLTSMAPGLVIQAVRVTKPNIPEAIRRNYELMESEKTKLLIAAQKQKVVEKEAETERKKALIEAEKVAQVAEITYGQKVMEKETEKKISEIEDAAFLAREKAKADAECYTAMKIAEANKLKLTPEYLQLMKYKAIASNSKIYFGKDIPNMFMDSAGSVSKQFEGLADKLSFGLEDEPLETATKEN
Regarding B5, the binding entry in assay [3] and in assay [2] was “binds” each time.

B6: UDP-Glucose, glycoprotein glucosyltransferase UGGT2 (protein, UniProt Q9NYU1 28-1516)
chain: TVAASKSVTAHLAAKWPETPLLLEASEFMAEESNEKFWQFLETVQELAIYKQTESDYSYYNLILKKAGQFLDNLHINLLKFAFSIRAYSPAIQMFQQIAADEPPPDGCNAFVVIHKKHTCKINEIKKLLKKAASRTRPYLFKGDHKFPTNKENLPVVILYAEMGTRTFSAFHKVLSEKAQNEEILYVLRHYIQKPSSRKMYLSGYGVELAIKSTEYKALDDTQVKTVTNTTVEDETETNEVQGFLFGKLKEIYSDLRDNLTAFQKYLIESNKQMMPLKVWELQDLSFQAASQIMSAPVYDSIKLMKDISQNFPIKARSLTRIAVNQHMREEIKENQKDLQVRFKIQPGDARLFINGLRVDMDVYDAFSILDMLKLEGKMMNGLRNLGINGEDMSKFLKLNSHIWEYTYVLDIRHSSIMWINDLENDDLYITWPTSCQKLLKPVFPGSVPSIRRNFHNLVLFIDPAQEYTLDFIKLADVFYSHEVPLRIGFVFILNTDDEVDGANDAGVALWRAFNYIAEEFDISEAFISIVHMYQKVKKDQNILTVDNVKSVLQNTFPHANIWDILGIHSKYDEERKAGASFYKMTGLGPLPQALYNGEPFKHEEMNIKELKMAVLQRMMDASVYLQREVFLGTLNDRTNAIDFLMDRNNVVPRINTLILRTNQQYLNLISTSVTADVEDFSTFFFLDSQDKSAVIAKNMYYLTQDDESIISAVTLWIIADFDKPSGRKLLFNALKHMKTSVHSRLGIIYNPTSKINEENTAISRGILAAFLTQKNMFLRSFLGQLAKEEIATAIYSGDKIKTFLIEGMDKNAFEKKYNTVGVNIFRTHQLFCQDVLKLRPGEMGIVSNGRFLGPLDEDFYAEDFYLLEKITFSNLGEKIKGIVENMGINANNMSDFIMKVDALMSSVPKRASRYDVTFLRENHSVIKTNPQENDMFFNVIAIVDPLTREAQKMAQLLVVLGKIINMKIKLFMNCRGRLSEAPLESFYRFVLEPELMSGANDVSSLGPVAKFLDIPESPLLILNMITPEGWLVETVHSNCDLDNIHLKDTEKTVTAEYELEYLLLEGQCFDKVTEQPPRGLQFTLGTKNKPAVVDTIVMAHHGYFQLKANPGAWILRLHQGKSEDIYQIVGHEGTDSQADLEDIIVVLNSFKSKILKVKVKKETDKIKEDILTDEDEKTKGLWDSIKSFTVSLHKENKKEKDVLNIFSVASGHLYERFLRIMMLSVLRNTKTPVKFWLLKNYLSPTFKEVIPHMAKEYGFRYELVQYRWPRWLRQQTERQRIIWGYKILFLDVLFPLAVDKIIFVDADQIVRHDLKELRDFDLDGAPYGYTPFCDSRREMDGYRFWKTGYWASHLLRRKYHISALYVVDLKKFRRIGAGDRLRSQYQALSQDPNSLSNLDQDLPNNMIYQVAIKSLPQDWLWCETWCDDESKQRAKTIDLCNNPKTKESKLKAAARIVPEWVEYDAEIRQLLDHLENKKQDTILTHDEL
With B6, the binding entry in assay [1] is “binds”.

B7: ERGIC53 (protein, UniProt P49257 31-510)
chain: DGVGGDPAVALPHRRFEYKYSFKGPHLVQSDGTVPFWAHAGNAIPSSDQIRVAPSLKSQRGSVWTKTKAAFENWEVEVTFRVTGRGRIGADGLAIWYAENQGLEGPVFGSADLWNGVGIFFDSFDNDGKKNNPAIVIIGNNGQIHYDHQNDGASQALASCQRDFRNKPYPVRAKITYYQNTLTVMINNGFTPDKNDYEFCAKVENMIIPAQGHFGISAATGGLADDHDVLSFLTFQLTEPGKEPPTPDKEISEKEKEKYQEEFEHFQQELDKKKEEFQKGHPDLQGQPAEEIFESVGDRELRQVFEGQNRIHLEIKQLNRQLDMILDEQRRYVSSLTEEISKRGAGMPGQHGQITQQELDTVVKTQHEILRQVNEMKNSMSETVRLVSGMQHPGSAGGVYETTQHFIDIKEHLHIVKRDIDNLVQRNMPSNEKPKCPELPPFPSCLSTVHFIIFVVVQTVLFIGYIMYRSQQEAAAKKFF
Regarding B7, in assay [1], the binding result was “binds”.

Values taken from paper PMC7279049.
